Assay results: article PMC6886185
Construct, isoform or probe ends are uncertain for at least one entry. The comparison behind a weaker result is the experiment's own reference, which may not be listed here. At least one verdict was read from the data and is not stated in words by the source.

Molecular target: eIF4H (UniProt Q15056)
Assay: competition with a labelled probe
Details: strand release by unlabelled (AG)10, low clamping vs eIF4A; 20 mM Hepes/KOH pH 7.5, 100 (mM) KCl, 1 mM MgCl2, 1 mM AMP-PNP, 1 mM TCEP, 0.1% DMSO, +/-50 uM silvestrol (10 uM in Fig 4a legend), 60 min, 25 C; recombinant protein; protein details: SUMO tag cleaved; label: 5' FAM

Q: Does AGAGAGAGAGAGAGAGAGAG [(AG)10 ssRNA] bind?
A: binds more weakly
